Assay results as given in PMC11448502, “Cryo-EM structures of the human P2X1 receptor reveal subtype-specific architecture and antagonism by supramolecular ligand-binding” (Nature Communications, 2024).
Further values from the same series stand in other lists.

Target: T1, hP2X1 N184A (Homo sapiens, UniProt P51575, N184A)
T1 construct: hP2X1 mRNA that was made from linearized full-length wild-type or mutant pcDNA 3.1x; expressed in transfected cells; host or cells: Xenopus laevis oocytes (mRNA injection)
T1 sequence (P51575 1-399 N184A): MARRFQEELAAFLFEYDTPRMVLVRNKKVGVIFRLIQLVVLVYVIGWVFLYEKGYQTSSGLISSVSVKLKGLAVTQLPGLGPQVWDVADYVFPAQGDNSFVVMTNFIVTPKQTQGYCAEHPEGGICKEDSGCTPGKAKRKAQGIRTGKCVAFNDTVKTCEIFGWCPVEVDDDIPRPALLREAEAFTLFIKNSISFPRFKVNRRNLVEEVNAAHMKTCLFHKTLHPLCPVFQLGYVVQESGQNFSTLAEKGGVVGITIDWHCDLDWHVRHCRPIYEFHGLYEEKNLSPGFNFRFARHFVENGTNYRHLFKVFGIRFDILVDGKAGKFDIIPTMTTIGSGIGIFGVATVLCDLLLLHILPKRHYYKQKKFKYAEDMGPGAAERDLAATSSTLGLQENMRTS
Assay: NF449 inhibition dose response (IC50), TEVC in oocytes
Format: cell-based
Conditions: [NF449] 1.600E-09 M
Experimental: Oocytes were purchased defolliculated from Ecocyte Bioscience in Barth’s Solution (88 mM NaCl, 1 mM KCl, 0.82 mM MgSO4, 0.33 mM Ca(NO3)2, 0.41 mM CaCl2, 2.4 mM NaHCO3, 5 mM Tris-HCl) supplemented with penicillin (100 U/mL) and streptomycin (100 µg/mL). Xenopus laevis oocytes were then injected with 50 nL of 100 ng/μL hP2X1 mRNA that was made from linearized full-length wild-type or mutant pcDNA 3.1x according to the protocol provided in the mMessage mMachine kit (Invitrogen). Injected oocytes were allowed to express for ~20 hours at 18 °C before recording was performed.
Data acquisition was performed using the Oocyte Clamp OC-725C amplifier and pClamp 8.2 software. Buffers were applied using a gravity fed RSC-200 Rapid Solution Changer that flows at ~5 mL/min. All experiments use Sutter filamented glass 10 cm in length with an inner diameter of 0.69 mm and an outer diameter of 1.2 mm to impale oocytes and clamp the holding voltage at −60 mV. Experiments were recorded in buffer containing 10 mM HEPES (pH 7.4), 140 mM NaCl, 5 mM KCl, 2 mM CaCl2, 2 mM MgCl2, and 10 mM glucose.
To test a dilution series of an antagonist at discrete concentrations, 10 µM ATP (2 mM ATP for K309A only) was first applied to evoke an initial maximum current. […]

## O=C(Nc1cc(C(=O)Nc2ccc(S(=O)(=O)O)cc2S(=O)(=O)O)cc(C(=O)Nc2ccc(S(=O)(=O)O)cc2S(=O)(=O)O)c1)Nc1cc(C(=O)Nc2ccc(S(=O)(=O)O)cc2S(=O)(=O)O)cc(C(=O)Nc2ccc(S(=O)(=O)O)cc2S(=O)(=O)O)c1 [NF449, 4,4’,4”,4’’’-(carbonylbis(imino-5,1,3-benzenetriylbis(carbonylimino)))tetrakis-benzene-1,3-disulfonic acid]
  Normalized Current: 0.5685
